Results are given in words; binding and its absence hold for the method and conditions named. Binding seen in cells or lysates may run through a third protein. Some results given as binding are weak or reduced against the parent protein; the word gives no strength.

By UniProt entry, the sequences of proteins in these tests, tags left out.
UniProt Q3TKT4: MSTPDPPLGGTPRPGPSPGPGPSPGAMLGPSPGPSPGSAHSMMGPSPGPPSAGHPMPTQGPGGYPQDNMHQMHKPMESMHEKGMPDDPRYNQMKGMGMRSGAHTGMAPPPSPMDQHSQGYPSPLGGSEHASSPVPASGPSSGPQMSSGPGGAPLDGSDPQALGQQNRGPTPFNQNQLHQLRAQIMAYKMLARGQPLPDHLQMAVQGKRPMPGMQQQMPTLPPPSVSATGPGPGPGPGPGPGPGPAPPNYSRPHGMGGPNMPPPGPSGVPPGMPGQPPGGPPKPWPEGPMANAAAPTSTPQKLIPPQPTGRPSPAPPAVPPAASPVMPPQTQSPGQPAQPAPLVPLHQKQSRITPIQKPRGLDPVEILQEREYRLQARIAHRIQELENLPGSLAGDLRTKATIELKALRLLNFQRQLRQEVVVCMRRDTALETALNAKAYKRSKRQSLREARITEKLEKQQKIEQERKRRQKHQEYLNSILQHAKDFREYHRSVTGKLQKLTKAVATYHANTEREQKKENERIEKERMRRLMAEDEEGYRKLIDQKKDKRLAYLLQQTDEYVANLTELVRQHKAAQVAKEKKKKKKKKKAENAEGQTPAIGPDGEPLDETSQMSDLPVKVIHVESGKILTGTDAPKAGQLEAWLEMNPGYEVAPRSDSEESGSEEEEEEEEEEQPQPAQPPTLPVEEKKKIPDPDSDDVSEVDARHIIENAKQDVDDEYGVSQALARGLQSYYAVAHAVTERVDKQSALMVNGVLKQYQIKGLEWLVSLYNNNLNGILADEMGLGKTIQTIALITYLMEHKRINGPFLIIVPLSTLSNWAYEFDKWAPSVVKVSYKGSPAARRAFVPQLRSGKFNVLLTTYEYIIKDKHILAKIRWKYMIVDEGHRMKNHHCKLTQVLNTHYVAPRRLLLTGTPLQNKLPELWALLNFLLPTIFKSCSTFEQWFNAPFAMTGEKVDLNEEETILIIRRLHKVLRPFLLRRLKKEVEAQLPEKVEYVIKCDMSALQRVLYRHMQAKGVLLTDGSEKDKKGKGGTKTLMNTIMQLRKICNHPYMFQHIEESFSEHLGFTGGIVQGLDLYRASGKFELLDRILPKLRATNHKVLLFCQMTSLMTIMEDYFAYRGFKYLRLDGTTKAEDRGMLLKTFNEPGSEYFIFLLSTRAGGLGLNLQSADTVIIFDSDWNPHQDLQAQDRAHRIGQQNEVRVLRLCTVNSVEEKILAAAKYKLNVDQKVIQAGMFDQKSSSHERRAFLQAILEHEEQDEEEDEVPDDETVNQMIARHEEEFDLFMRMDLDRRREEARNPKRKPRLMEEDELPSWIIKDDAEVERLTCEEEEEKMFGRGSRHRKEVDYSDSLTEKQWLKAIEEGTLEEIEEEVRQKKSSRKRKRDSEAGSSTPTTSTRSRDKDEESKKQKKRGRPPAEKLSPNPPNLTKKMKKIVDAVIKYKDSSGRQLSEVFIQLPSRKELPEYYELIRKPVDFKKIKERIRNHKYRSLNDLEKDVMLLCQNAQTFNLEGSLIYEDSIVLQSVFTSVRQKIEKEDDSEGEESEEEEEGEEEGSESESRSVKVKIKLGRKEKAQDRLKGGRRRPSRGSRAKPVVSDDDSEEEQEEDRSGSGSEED

The values below come from PMC2868905.

The target in this assay is Brahma related gene 1 (Brg1) (mouse (endogenous in TS cells)) (UniProt Q3TKT4). The experiment in a line: co-IP; about 2 mg TS cell lysate in lysis buffer (50 mM HEPES, 150 mM NaCl, 1 mM EDTA, 2.5 mM EGTA, 10% glycerol, 0.1% tween 20); Brg1 precipitated with Brg1 rabbit anti-serum overnight at 4°C, Protein-G agarose; Cdx2 detected by Western blot; rabbit IgG as control. (In western blotting, separated proteins are transferred to a membrane and probed.)

B1: Cdx2 (protein, UniProt P43241 1-311)
chain: MYVSYLLDKDVSMYPSSVRHSGGLNLAPQNFVSPPQYPDYGGYHVAAAAAATANLDSAQSPGPSWPTAYGAPLREDWNGYAPGGAAAANAVAHGLNGGSPAAAMGYSSPAEYHAHHHPHHHPHHPAASPSCASGLLQTLNLGPPGPAATAAAEQLSPSGQRRNLCEWMRKPAQQSLGSQVKTRTKDKYRVVYTDHQRLELEKEFHFSRYITIRRKSELAATLGLSERQVKIWFQNRRAKERKIKKKQQQQQQQQQQQPPQPPPQPSQPQPGALRSVPEPLSPVTSLQGSVPGSVPGVLGPAGGVLNSTVTQ
With B1, the binding result is listed as “binds”.
